Test results reported in the supplement of paper PMC10849652.
Some of the results follow.

By UniProt entry, the sequences of proteins in these tests, tags left out. Where a name states a change or a piece, a line headed by the entry shows the natural chain unless it says otherwise.
UniProt Q9UJT0: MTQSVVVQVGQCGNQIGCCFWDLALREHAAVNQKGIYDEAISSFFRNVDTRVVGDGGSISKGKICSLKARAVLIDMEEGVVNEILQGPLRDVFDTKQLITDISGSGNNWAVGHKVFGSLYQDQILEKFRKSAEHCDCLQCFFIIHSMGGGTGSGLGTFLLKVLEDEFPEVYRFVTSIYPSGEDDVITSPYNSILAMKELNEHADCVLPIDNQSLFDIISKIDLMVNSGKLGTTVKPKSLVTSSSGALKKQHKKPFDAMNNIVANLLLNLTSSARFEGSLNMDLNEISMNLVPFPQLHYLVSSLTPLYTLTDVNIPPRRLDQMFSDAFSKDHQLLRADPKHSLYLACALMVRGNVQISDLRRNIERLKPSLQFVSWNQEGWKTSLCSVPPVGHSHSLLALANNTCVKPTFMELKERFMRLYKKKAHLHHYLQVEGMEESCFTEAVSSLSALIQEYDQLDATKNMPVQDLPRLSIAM
UniProt Q14157: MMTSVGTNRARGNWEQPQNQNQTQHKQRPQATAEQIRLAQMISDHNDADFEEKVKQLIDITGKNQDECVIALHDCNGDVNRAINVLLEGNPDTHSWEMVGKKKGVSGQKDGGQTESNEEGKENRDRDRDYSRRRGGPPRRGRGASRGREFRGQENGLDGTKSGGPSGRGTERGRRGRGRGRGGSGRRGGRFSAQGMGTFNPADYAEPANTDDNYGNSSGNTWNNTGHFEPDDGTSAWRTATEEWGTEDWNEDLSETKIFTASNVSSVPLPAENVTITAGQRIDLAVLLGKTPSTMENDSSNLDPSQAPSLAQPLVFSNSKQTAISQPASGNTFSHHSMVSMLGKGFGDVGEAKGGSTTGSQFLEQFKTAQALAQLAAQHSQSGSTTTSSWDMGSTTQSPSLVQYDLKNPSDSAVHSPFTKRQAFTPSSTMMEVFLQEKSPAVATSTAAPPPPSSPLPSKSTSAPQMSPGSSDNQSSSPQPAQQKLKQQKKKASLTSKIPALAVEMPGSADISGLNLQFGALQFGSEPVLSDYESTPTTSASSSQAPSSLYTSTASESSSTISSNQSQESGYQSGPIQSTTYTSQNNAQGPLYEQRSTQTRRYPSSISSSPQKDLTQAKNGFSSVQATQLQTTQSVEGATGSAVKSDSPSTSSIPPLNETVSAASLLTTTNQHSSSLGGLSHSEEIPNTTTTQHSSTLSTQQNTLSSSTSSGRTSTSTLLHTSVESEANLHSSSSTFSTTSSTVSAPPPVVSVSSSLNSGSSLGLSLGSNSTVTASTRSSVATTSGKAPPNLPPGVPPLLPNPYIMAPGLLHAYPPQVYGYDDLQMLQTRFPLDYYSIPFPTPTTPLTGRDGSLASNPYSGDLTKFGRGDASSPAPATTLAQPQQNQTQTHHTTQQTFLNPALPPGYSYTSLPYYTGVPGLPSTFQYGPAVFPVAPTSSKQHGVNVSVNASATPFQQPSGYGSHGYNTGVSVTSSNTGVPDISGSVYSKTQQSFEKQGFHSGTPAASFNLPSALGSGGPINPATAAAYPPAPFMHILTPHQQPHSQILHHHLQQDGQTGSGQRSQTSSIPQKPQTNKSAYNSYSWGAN
UniProt Q9GZZ9, whole entry, looked up: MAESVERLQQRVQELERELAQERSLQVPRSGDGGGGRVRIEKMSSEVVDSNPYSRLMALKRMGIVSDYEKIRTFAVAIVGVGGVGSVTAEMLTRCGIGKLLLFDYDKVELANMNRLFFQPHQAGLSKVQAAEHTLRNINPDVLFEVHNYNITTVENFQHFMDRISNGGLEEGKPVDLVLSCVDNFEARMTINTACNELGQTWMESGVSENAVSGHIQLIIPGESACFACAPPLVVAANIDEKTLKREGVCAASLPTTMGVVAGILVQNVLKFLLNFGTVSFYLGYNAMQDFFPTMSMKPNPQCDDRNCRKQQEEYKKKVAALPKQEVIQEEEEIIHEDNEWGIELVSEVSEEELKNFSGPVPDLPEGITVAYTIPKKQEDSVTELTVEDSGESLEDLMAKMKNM
UniProt Q99757: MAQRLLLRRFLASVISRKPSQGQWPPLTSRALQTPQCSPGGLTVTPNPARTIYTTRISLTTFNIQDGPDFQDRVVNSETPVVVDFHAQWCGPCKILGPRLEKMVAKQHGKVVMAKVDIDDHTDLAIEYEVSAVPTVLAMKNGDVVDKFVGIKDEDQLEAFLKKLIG
UniProt Q9BTX7: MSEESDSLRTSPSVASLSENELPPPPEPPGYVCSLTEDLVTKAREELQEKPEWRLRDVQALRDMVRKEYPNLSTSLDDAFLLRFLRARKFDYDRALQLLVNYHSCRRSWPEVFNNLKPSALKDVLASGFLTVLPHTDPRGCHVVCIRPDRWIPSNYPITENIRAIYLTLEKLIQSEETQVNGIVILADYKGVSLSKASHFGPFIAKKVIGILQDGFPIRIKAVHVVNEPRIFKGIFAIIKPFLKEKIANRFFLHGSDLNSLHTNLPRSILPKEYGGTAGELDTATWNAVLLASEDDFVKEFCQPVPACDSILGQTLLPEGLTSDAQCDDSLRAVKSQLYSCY
UniProt Q13630: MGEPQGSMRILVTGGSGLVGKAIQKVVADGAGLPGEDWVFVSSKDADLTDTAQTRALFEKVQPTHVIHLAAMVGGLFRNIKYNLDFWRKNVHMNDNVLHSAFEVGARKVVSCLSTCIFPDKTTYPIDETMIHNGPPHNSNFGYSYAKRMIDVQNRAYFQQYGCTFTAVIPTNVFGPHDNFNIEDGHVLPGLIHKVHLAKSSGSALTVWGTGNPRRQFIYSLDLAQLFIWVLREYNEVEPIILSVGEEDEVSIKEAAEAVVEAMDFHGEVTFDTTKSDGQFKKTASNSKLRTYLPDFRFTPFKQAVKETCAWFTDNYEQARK
UniProt Q05086: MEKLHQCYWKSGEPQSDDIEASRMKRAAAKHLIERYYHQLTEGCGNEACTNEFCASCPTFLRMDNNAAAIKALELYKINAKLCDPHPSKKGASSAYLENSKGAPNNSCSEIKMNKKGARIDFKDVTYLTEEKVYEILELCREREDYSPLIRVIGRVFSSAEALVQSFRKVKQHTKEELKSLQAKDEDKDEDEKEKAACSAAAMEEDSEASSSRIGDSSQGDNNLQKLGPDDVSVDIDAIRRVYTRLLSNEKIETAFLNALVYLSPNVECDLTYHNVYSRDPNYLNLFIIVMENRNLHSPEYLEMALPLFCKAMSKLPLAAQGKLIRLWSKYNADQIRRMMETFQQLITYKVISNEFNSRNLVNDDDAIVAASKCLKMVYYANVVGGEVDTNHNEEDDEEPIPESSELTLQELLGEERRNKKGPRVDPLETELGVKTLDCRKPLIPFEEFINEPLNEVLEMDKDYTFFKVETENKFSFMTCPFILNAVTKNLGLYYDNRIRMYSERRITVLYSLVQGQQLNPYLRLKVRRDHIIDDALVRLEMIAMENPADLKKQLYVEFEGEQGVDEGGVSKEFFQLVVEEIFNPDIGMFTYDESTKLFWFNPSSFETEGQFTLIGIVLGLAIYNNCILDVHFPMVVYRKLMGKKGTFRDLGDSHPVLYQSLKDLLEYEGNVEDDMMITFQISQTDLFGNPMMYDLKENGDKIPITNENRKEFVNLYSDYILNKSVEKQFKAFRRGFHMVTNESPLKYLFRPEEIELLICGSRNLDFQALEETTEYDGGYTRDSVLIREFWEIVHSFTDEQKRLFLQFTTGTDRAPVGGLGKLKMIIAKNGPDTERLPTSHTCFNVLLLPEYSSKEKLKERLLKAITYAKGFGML
UniProt P62256: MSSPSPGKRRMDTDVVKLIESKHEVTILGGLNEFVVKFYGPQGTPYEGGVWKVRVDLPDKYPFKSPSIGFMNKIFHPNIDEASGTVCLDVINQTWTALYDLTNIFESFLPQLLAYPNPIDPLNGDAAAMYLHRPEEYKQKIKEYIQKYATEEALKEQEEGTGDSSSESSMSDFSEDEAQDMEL
UniProt Q9H3M7: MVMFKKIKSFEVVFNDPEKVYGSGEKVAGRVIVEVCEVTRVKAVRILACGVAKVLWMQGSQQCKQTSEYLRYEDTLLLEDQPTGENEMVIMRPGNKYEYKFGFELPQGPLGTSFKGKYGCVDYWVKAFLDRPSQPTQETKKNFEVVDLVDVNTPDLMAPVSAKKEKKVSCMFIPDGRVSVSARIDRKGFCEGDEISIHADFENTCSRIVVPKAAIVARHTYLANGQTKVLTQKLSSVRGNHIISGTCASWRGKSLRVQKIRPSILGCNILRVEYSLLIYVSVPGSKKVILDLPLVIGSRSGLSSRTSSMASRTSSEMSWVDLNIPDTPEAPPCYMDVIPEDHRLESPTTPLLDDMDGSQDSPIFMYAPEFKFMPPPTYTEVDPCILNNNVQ
UniProt Q7Z7E8: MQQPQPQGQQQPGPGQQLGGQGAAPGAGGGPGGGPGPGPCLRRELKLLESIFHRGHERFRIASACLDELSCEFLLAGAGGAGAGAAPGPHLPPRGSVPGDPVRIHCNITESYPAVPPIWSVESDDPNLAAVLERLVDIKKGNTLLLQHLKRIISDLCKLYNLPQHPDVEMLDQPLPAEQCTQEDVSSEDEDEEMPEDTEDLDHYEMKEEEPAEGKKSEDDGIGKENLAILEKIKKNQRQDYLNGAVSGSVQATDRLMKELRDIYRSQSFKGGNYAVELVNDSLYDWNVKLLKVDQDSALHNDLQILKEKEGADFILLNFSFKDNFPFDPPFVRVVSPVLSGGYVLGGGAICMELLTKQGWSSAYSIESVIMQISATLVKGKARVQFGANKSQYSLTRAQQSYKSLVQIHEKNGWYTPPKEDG
UniProt O95801: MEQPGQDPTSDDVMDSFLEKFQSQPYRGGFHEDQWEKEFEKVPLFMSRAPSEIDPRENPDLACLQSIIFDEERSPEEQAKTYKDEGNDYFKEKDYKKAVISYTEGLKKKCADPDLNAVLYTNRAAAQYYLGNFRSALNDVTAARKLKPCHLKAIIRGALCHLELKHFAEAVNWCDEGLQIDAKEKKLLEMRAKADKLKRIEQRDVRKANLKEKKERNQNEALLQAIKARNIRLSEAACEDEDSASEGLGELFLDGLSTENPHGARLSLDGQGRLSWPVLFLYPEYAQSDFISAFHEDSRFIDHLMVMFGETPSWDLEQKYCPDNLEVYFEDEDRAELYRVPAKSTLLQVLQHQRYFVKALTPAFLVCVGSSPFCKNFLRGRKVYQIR
UniProt Q969M7: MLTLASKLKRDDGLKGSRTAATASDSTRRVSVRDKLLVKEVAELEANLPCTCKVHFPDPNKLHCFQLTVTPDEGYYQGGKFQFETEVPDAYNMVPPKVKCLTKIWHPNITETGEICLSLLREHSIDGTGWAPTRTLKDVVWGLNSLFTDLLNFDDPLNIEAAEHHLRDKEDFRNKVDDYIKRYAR
UniProt P04818: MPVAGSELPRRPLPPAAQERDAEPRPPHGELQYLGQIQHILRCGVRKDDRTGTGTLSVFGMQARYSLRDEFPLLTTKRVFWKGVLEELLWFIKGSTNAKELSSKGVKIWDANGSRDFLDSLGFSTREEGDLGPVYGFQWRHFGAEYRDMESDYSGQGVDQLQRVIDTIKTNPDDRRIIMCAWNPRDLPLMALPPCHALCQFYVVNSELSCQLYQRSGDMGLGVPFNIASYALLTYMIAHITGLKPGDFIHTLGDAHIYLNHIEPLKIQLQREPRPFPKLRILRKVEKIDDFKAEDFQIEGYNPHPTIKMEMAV
UniProt O95881: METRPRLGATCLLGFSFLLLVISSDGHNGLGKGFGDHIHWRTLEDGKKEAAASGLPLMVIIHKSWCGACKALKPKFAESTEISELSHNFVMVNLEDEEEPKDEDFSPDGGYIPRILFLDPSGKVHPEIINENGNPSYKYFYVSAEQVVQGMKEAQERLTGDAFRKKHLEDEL
UniProt Q01081: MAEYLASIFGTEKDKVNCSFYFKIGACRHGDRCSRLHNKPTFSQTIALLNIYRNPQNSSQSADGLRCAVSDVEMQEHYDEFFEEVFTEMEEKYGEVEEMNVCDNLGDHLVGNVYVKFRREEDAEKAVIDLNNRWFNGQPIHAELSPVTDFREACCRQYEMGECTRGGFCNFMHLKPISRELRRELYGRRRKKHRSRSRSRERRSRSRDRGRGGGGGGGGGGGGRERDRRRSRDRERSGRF
UniProt Q8NG68: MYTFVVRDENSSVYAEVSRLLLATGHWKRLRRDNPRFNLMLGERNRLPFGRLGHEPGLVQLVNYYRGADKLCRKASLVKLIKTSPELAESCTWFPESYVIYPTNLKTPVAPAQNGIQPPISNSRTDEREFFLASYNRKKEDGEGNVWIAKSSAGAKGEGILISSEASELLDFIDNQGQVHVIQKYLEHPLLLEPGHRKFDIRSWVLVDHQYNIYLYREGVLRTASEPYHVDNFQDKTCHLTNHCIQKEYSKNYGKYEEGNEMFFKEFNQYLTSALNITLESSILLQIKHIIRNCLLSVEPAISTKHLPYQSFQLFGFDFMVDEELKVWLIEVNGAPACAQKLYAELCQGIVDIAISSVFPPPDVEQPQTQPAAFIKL
UniProt Q969T4: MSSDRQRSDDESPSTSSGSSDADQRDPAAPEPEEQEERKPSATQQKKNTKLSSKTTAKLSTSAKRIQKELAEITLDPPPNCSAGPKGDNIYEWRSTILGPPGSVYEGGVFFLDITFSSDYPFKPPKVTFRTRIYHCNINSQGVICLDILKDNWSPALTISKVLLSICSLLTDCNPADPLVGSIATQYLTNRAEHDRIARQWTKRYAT

What was measured:
Assay in all cases: log2 fold change, soluble protein after heating vs DMSO (PISA); higher = thermal stabilisation; K562 cells, 10 uM, 30 min; active = over 0.2 and 3.5 SD of the protein, either way, in both replicates (recomputed)
erlotinib = compound: C#Cc1cccc(Nc2ncnc3cc(OCCOC)c(OCCOC)cc23)c1 [erlotinib]
Summary of the method: (§1)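 For each measurement, 10 μM compound was applied for 30 min to K562 cells at 2×10^6 cells/mL. Aliquots were heated for 3 min across 48°C-58°C, pooled, and extracted in PBS with 0.5% NP-40 at 4°C; the supernatant after 21,000xg for 90 min was soluble protein. This was quantified by TMTpro 16plex LC-MS/MS with channel sums equalised, and thermal stability was reported relative to control samples from duplicates, on a log2 fold-change scale.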

[1] = compound: C/C(=N\NC(=O)C1=CC(=CC=C1)S(=O)(=O)N2CCOCC2)/C3=C(C=CC(=C3)Cl)O
Summary of the method: as §1

[2] = compound: C1=CC(=C(C=C1Cl)C2=NC3=NC=CN=C3C(=N2)NC4=CC=NC=C4)F
Summary of the method: as §1

[3] = compound: C1=CC(=CC=C1C2=NC3=C(N2)C=C(C=C3)C(=O)N)OC4=CC=C(C=C4)Cl
Summary of the method: as §1

[4] = compound: C1=CC2=C(C=CC(=C2)/C=C\3/C(=O)NC(=NCC4=CC=CS4)S3)N=C1
Summary of the method: as §1

[5] = compound: C1=CC2=NC=CN=C2C=C1/C=C/3\C(=O)NC(=O)S3
Summary of the method: as §1

[6] = compound: C1=CC=C(C=C1)C2=NC(=C(N2)C3=CC=NC=C3)C4=CC(=C(C=C4)Cl)O
Summary of the method: as §1

[7] = compound: C1=CC=C2C(=C1)C3=NNC4=CC=CC(=C43)C2=O
Summary of the method: as §1

[8] = compound: C1CCN(C1)C(=O)NC2=CC=CC(=C2)NC3=NC=C(C(=N3)NCCC4=CN=CN4)Br
Summary of the method: as §1

[9] = compound: C1CN(CCC1(CC2=CC=C(C=C2)Cl)N)C3=NC=NC4=C3C=CN4
Summary of the method: as §1

Measured: log2 fold change

TUBE1 (UniProt Q9UJT0)
inactive: erlotinib 0.03 | [1] 0.027 | [2] -0.011 | [3] 0.017 | [4] 0.009 | [5] -0.014 | [6] -0.022 | [7] 0.01 | [8] -0.016 | [9] -0.017

UBAP2L isoform 1 (UniProt Q14157)
inactive: erlotinib -0.126 | [1] 0.013 | [2] -0.003 | [3] 0.083 | [4] -0.06 | [5] -0.023 | [6] 0.04 | [7] -0.024 | [8] -0.082 | [9] 0.017

UBE2NL (UniProt Q5JXB2)
inactive: erlotinib 0.013 | [1] 0.07 | [2] 0.229 | [3] -0.027 | [4] 0.062 | [5] 0.041 | [6] 0.002 | [7] 0.048 | [8] -0.035 | [9] -0.019

UBA5 (UniProt Q9GZZ9)
inactive: erlotinib 0.018 | [1] 0.042 | [2] 0.005 | [3] 0.008 | [4] 0.026 | [5] 0.021 | [6] 0.041 | [7] -0.032 | [8] 0.06 | [9] -0.016

TXN2 (UniProt Q99757)
inactive: erlotinib -0.035 | [1] -0.022 | [2] 0.093 | [3] -0.032 | [4] 0.086 | [5] 0.098 | [6] -0.02 | [7] 0.029 | [8] 0.029 | [9] 0.005

TUBB (UniProt P07437)
inactive: erlotinib 0.008 | [1] -0.015 | [2] 0.043 | [3] 0.034 | [4] 0.013 | [5] -0.013 | [6] 0.019 | [7] 0.011 | [8] 0.016 | [9] 0.08

TTPAL (UniProt Q9BTX7)
inactive: erlotinib 0.025 | [1] 0.011 | [2] -0.021 | [3] -0.005 | [4] 0.017 | [5] 0.043 | [6] 0.056 | [7] 0.005 | [8] -0.035 | [9] 0.069

Copied from the listing (2 entries):
TUBB (UniProt P07437)
inactive: erlotinib 0.008 | [1] -0.015 | [2] 0.043 | [3] 0.034 | [4] 0.013 | [5] -0.013 | [6] 0.019 | [7] 0.011 | [8] 0.016 | [9] 0.08

TTPAL (UniProt Q9BTX7)
inactive: erlotinib 0.025 | [1] 0.011 | [2] -0.021 | [3] -0.005 | [4] 0.017 | [5] 0.043 | [6] 0.056 | [7] 0.005 | [8] -0.035 | [9] 0.069

(listing goes on)

TUBA1C (UniProt Q9BQE3)
inactive: erlotinib 0.017 | [1] 0.031 | [2] 0.061 | [3] 0.046 | [4] 0.022 | [5] -0.035 | [6] 0.004 | [7] 0.007 | [8] 0.002 | [9] 0.099

TSTA3 (UniProt Q13630)
inactive: erlotinib 0 | [1] -0.011 | [2] 0.031 | [3] 0.006 | [4] 0.01 | [5] -0.039 | [6] -0.009 | [7] -0.008 | [8] -0.003 | [9] 0.035

UBE3A (UniProt Q05086)
inactive: erlotinib 0.001 | [1] 0.036 | [2] 0.026 | [3] 0.017 | [4] 0.017 | [5] 0.005 | [6] 0.001 | [7] 0.012 | [8] -0.012 | [9] 0.017

UBE2H (UniProt P62256)
inactive: erlotinib -0.005 | [1] 0.059 | [2] 0.033 | [3] 0 | [4] 0.025 | [5] -0.037 | [6] -0.042 | [7] -0.036 | [8] -0.021 | [9] -0.008

TTC1 (UniProt Q99614)
inactive: erlotinib -0.037 | [1] -0.017 | [2] 0.001 | [3] 0.004 | [4] 0.011 | [5] 0.024 | [6] -0.009 | [7] 0.001 | [8] -0.001 | [9] 0.041

TXNIP (UniProt Q9H3M7)
inactive: erlotinib 0.013 | [1] 0.017 | [2] 0.082 | [3] 0.025 | [4] 0.108 | [5] 0.124 | [6] 0.141 | [7] 0.034 | [8] 0.137 | [9] 0.041

UBAP2L isoform 5 (UniProt Q14157)
inactive: erlotinib 0.057 | [1] -0.005 | [2] 0.005 | [3] 0 | [4] 0.013 | [5] 0.015 | [6] -0.029 | [7] -0.03 | [8] -0.007 | [9] 0.026

UBE2Q1 (UniProt Q7Z7E8)
inactive: erlotinib 0.058 | [1] 0.006 | [2] 0.059 | [3] 0.017 | [4] 0.019 | [5] 0.061 | [6] 0.014 | [7] 0.026 | [8] -0.016 | [9] -0.037

TUBA8 (UniProt Q9NY65)
inactive: erlotinib 0.12 | [1] -0.356 | [2] -0.522 | [3] 0.232 | [4] -0.021 | [5] 0.032 | [6] -0.261 | [7] 0.113 | [8] -0.117 | [9] 0.028

TTC4 (UniProt O95801)
inactive: erlotinib 0.094 | [1] 0.081 | [2] 0.016 | [3] 0.005 | [4] 0.061 | [5] -0.007 | [6] 0.081 | [7] 0.025 | [8] -0.057 | [9] -0.018

UBE2F isoform 2 (UniProt Q969M7)
inactive: erlotinib 0.041 | [1] 0.054 | [2] 0.053 | [3] 0.059 | [4] 0.001 | [5] -0.017 | [6] -0.001 | [7] 0.01 | [8] 0.005 | [9] 0.021

TYMS (UniProt P04818)
inactive: erlotinib 0.023 | [1] 0.126 | [2] -0.019 | [3] 0.025 | [4] 0.013 | [5] -0.018 | [6] 0.045 | [7] 0.047 | [8] -0.104 | [9] 0.016

TXNDC12 (UniProt O95881)
inactive: erlotinib -0.055 | [1] 0.006 | [2] 0.011 | [3] -0.028 | [4] 0.044 | [5] 0.009 | [6] 0.005 | [7] -0.012 | [8] 0.016 | [9] -0.042

TUBB1 (UniProt Q9H4B7)
inactive: erlotinib 0.036 | [1] 0.035 | [2] 0 | [3] 0.021 | [4] -0.049 | [5] -0.026 | [6] 0.146 | [7] 0.003 | [8] -0.036 | [9] 0.072

TSEN54 (UniProt Q7Z6J9)
inactive: erlotinib 0.182 | [1] 0.033 | [2] 0.015 | [3] 0.11 | [4] 0.017 | [5] -0.04 | [6] 0.037 | [7] -0.029 | [8] -0.11 | [9] 0.082

U2AF1 isoform 2 (UniProt Q01081)
inactive: erlotinib 0.015 | [1] 0.119 | [2] -0.02 | [3] -0.036 | [4] -0.038 | [5] 0.015 | [6] 0.036 | [7] -0.036 | [8] -0.071 | [9] -0.071

UBAP1 isoform 4 (UniProt Q9NZ09)
inactive: erlotinib 0.001 | [1] 0.127 | [2] 0.013 | [3] 0.049 | [4] 0.025 | [5] 0.027 | [6] -0.02 | [7] 0.024 | [8] 0.058 | [9] -0.093

TTL (UniProt Q8NG68)
inactive: erlotinib 0.064 | [1] -0.04 | [2] 0.043 | [3] 0.012 | [4] 0.054 | [5] -0.004 | [6] -0.046 | [7] -0.032 | [8] -0.027 | [9] 0.033

UBE2S (UniProt Q16763)
inactive: erlotinib 0.01 | [1] 0.064 | [2] -0.025 | [3] -0.021 | [4] 0.052 | [5] 0.014 | [6] -0.008 | [7] 0.014 | [8] -0.02 | [9] 0.029

UBE2E3 (UniProt Q969T4)
inactive: erlotinib 0.063 | [1] 0.112 | [2] 0.152 | [3] -0.034 | [4] 0.083 | [5] 0.009 | [6] 0.014 | [7] 0.045 | [8] -0.028 | [9] -0.019
